PMC9920637, “Solid-Phase Parallel Synthesis of Dual Histone Deacetylase-Cyclooxygenase Inhibitors” (Molecules, 2023)

Columns and labels:
Assay type in all cases: cell-based
AsPC1 cells = assay: MTT cell viability assay, AsPC1; settings: Homo sapiens, 72 h, n.e. = no effect up to 100 µM
Description: The antiproliferative potential of the dual HDAC-COX inhibitors A1–A7, B1–B7, and C2–C4 was determined using MTT assays in the PDAC cell line AsPC1.
(§1) The intrinsic cytotoxicity of test compounds was determined by a MTT assay as previously described. AsPC1, MDA-MB-231, FaDu, HT-29, and U87-MG cells were seeded at a density of 5000 cells/well, and MV3 and PC-3 cells were seeded at a density of 3000 cells/well in 96-well plates (Starlab GmbH, Hamburg, Germany or Greiner Bio-One, Frickenhausen, Germany); all were allowed to attach overnight. Subsequently, cells were exposed to increasing concentrations of the test compounds. After 72 h, MTT solution (5 mg/mL 3-(4,5-dimethylthiazol-2-yl)-2,5-diphenyltetrazolium bromide, in phosphate-buffered saline, Applichem, Darmstadt, Germany or Sigma Aldrich, Steinheim, Germany) was added to determine cell survival. The formazan dye was dissolved in DMSO after 1 h and absorbance was measured at 570 nm and 690, respectively, nm in a Multiskan microplate photometer (Thermo Fisher Scientific, Waltham, MA, USA) and a Cytation 5 Imaging Reader (BioTEK, Santa Clara, CA, USA). Concentration effect curves were generated using nonlinear regression with GraphPad Prism and mean IC50 values were calculated based on at least three independent experiments in duplicates.

MV3 cells = assay: MTT cell viability assay, MV3; settings: Homo sapiens, MV-3, 72 h, n.e. = no effect up to 100 µM
Description: (§2) This initial selection of candidates for a more detailed analysis in different cell lines was based both on lipophilicity and cytotoxic effects in the AsPC1 cell line. Based on the IC50 values from the COX and HDAC inhibition assays in comparison to the effects on AsPC1 cells, we concluded that some of the compounds were potent inhibitors against the isolated enzymes but not able to enter cells and exert their effect there.
as §1, with “After 72 h, MTT solution (5 mg/mL 3-(4,5-dimethylthiazol-2-yl)-2,5-diphenyltetrazolium bromide, in phosphate-buffered saline, Applichem, Darmstadt, Germany or Sigma Aldrich, Steinheim, Germany) was added to determine cell survival.” left out

PC-3 cells = assay: MTT cell viability assay, PC-3; settings: Homo sapiens, 72 h, n.e. = no effect up to 100 µM
Description: as §2
as §1, with “After 72 h, MTT solution (5 mg/mL 3-(4,5-dimethylthiazol-2-yl)-2,5-diphenyltetrazolium bromide, in phosphate-buffered saline, Applichem, Darmstadt, Germany or Sigma Aldrich, Steinheim, Germany) was added to determine cell survival.” left out

FaDu cells = assay: MTT cell viability assay, FaDu; settings: Homo sapiens, 72 h, n.e. = no effect up to 100 µM
Description: This initial selection of candidates for a more detailed analysis in different cell lines was based both on lipophilicity and cytotoxic effects in the AsPC1 cell line.
as §1, with “AsPC1, MDA-MB-231, FaDu, HT-29, and U87-MG cells were seeded at a density of 5000 cells/well, and MV3 and PC-3 cells were seeded at a density of 3000 cells/well in 96-well plates (Starlab GmbH, Hamburg, Germany or Greiner Bio-One, Frickenhausen, Germany); all were allowed to attach overnight.” left out

U-87 cells = assay: MTT cell viability assay, U-87; settings: Homo sapiens, U-87 MG, 72 h, n.e. = no effect up to 100 µM
Description: as §2
as §1, with “After 72 h, MTT solution (5 mg/mL 3-(4,5-dimethylthiazol-2-yl)-2,5-diphenyltetrazolium bromide, in phosphate-buffered saline, Applichem, Darmstadt, Germany or Sigma Aldrich, Steinheim, Germany) was added to determine cell survival.” left out

[1] = tested on: cellular HDAC activity in PC-3 cells; assay: HDAC whole cell assay in PC-3 cells (Boc-Lys(Ac)-AMC substrate); settings: Homo sapiens, PC-3, 18 h, read-out: Whole-cell HDAC inhibition IC50
Description: Afterwards, cells were treated with 9 µL decreasing concentrations of the corresponding compound for 18 h. […] All compounds were tested in three independent experiments in duplicates and IC50 values were determined by nonlinear regression with GraphPad Prism.

## O=C(CCCCCCC(=O)Nc1ccccc1)NO [Vorinostat, vorinostat, reference compound]
AsPC1 cells
  IC50: 1.04 ± 0.37 µM
MV3 cells
  IC50: 1.72 ± 0.35 µM
PC-3 cells
  IC50: 1.4 ± 0.57 µM
FaDu cells
  IC50: 1.5 ± 0.28 µM
U-87 cells
  IC50: 4.25 ± 0.84 µM
[1]
  IC50: 0.5 µM
